Source: patent US11919857B2, “Phthalide derivative, preparation method and use thereof” (LANZHOU INSTITUTE OF CHEMICAL PHYSICS, CHINESE ACADEMY OF …, priority 2018, dated 2024)
Some results were stated once for a whole list of compounds, not compound by compound. For at least one compound, name, drawing or mass did not settle the structure.

System: PC12 cells
Experiment: Effects of phthalide and its derivatives on the proliferation of PC12 cells (MTT)
Assay type: cell-based
Details: 24 hours of incubation

Compound | concentration that could inhibit the growth of PC12 cells
CCCCC1(O)c2ccccc2C(=O)N1C1CC1 (centres unmarked) [n-butenylphthalide derivative, N-cyclopropyl-3-n-butyl-3-hydroxy-phthalide lactam] | at least 200 μM
CCCCC1(O)C2=C(C=CCC2)C(=O)N1C1CC1 (racemic) [ligustilide derivative, N-cyclopropyl-3-n-butyl-3-hydroxy-ligusticum lactam] | at least 200 μM
